The supplement of paper PMC10849652
This is one part of the list.

Protein sequences, listed by entry. Tags and fused reporters are not part of them. Lines headed by an entry give the natural chain unless they say otherwise; changes in a name come on top.
UniProt O14949: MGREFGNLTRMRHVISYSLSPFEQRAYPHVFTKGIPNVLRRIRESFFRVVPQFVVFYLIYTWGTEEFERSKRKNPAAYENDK
UniProt P50552: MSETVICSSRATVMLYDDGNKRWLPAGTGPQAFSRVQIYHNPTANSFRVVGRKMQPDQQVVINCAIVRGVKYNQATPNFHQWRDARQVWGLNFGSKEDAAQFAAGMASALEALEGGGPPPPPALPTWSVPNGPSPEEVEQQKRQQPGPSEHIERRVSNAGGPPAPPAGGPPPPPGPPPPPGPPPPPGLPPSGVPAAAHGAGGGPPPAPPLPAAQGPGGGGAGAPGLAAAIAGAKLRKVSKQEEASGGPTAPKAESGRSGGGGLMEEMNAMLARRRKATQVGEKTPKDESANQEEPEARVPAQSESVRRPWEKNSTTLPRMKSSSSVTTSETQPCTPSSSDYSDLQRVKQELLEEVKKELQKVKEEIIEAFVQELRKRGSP
UniProt O60701: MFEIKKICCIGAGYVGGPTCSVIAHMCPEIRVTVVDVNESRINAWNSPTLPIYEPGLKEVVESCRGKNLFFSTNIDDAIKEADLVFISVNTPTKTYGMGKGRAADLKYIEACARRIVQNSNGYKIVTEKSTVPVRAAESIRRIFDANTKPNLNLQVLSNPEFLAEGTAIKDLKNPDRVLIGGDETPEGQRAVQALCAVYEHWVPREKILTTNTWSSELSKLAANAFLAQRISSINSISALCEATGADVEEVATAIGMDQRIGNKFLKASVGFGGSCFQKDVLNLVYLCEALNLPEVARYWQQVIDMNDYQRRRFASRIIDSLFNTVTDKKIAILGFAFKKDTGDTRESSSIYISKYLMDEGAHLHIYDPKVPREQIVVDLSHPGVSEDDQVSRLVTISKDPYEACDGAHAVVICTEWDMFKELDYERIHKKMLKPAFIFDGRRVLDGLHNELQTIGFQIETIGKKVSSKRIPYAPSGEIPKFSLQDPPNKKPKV
UniProt Q8N806: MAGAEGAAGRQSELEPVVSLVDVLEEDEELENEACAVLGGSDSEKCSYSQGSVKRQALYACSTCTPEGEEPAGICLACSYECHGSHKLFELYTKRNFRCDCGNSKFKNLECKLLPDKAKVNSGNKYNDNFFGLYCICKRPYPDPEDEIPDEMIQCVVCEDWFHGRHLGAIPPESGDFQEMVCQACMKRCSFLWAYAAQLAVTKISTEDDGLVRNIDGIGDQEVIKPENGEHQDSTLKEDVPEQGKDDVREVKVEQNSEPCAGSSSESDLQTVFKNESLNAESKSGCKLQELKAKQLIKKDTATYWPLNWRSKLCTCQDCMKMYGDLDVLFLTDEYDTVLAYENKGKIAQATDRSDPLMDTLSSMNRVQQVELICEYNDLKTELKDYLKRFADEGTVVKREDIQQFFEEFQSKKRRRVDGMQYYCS
UniProt Q16851: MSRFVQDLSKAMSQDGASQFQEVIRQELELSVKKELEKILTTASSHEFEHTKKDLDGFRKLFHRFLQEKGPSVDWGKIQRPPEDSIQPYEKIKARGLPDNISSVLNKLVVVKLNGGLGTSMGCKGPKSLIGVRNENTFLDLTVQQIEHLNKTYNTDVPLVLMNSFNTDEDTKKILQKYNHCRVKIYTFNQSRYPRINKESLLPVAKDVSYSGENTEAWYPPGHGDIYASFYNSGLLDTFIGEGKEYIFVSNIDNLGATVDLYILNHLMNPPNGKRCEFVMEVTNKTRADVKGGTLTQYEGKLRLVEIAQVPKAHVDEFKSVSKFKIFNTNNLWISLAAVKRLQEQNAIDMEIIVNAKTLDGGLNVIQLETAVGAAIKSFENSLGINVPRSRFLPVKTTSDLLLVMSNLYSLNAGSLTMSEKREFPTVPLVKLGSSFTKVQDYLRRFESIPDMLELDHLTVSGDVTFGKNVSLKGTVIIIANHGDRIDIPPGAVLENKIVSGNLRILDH
UniProt Q6BDS2: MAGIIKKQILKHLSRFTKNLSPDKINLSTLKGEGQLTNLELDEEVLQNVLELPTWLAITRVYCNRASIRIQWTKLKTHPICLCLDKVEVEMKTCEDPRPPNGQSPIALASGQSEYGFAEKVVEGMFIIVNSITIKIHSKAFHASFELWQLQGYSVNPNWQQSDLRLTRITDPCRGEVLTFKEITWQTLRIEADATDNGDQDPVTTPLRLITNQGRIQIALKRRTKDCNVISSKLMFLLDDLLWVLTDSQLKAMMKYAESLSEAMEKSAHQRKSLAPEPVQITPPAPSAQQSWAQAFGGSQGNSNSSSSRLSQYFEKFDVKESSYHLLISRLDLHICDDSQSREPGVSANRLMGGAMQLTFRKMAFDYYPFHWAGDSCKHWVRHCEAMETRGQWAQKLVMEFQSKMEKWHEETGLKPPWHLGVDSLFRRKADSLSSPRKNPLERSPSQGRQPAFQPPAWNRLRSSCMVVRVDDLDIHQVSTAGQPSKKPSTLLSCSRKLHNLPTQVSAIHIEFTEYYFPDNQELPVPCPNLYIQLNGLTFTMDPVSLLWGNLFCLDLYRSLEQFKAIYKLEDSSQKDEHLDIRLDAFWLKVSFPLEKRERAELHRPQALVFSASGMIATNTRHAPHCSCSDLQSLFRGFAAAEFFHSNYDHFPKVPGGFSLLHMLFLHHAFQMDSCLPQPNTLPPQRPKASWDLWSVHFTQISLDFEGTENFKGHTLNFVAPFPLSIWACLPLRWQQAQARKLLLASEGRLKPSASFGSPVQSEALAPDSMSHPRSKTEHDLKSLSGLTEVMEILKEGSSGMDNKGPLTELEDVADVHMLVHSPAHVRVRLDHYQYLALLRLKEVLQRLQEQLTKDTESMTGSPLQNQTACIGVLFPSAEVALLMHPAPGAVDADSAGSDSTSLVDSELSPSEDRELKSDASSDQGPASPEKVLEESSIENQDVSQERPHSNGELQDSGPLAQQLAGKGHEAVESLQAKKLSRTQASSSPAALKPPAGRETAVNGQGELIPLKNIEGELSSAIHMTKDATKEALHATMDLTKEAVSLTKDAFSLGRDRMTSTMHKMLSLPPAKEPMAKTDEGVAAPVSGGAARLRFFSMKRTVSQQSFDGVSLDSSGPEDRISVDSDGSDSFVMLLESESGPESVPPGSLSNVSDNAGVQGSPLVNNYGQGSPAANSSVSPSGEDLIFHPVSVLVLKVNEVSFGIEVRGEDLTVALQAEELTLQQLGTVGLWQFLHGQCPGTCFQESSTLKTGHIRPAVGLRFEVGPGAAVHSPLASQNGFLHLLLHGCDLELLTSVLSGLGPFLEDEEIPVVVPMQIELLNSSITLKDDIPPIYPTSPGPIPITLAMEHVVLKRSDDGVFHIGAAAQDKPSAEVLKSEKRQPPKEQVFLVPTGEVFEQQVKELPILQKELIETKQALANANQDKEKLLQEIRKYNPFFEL
UniProt P14927: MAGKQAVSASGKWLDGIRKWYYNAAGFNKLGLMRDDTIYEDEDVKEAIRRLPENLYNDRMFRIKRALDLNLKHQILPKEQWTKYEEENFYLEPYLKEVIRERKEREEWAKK
UniProt Q9BZL1: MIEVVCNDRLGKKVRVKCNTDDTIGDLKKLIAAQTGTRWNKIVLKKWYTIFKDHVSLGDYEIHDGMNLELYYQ
UniProt Q9UMX0, whole entry, looked up: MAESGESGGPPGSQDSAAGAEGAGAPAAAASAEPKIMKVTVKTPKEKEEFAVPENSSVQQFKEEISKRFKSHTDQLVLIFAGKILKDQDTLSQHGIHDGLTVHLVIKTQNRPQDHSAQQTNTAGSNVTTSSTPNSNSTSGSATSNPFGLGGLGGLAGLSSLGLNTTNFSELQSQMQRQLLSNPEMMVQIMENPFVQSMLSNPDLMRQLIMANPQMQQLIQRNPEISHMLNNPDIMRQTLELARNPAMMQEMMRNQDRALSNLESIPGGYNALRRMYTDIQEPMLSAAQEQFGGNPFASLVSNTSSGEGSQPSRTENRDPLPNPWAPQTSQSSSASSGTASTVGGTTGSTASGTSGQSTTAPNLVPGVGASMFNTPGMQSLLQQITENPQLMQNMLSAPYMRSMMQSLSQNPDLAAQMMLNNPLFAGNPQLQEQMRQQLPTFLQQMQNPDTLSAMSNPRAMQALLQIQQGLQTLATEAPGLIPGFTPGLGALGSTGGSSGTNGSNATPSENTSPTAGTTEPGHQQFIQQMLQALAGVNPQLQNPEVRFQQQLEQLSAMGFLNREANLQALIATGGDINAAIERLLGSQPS
UniProt A0JNW5: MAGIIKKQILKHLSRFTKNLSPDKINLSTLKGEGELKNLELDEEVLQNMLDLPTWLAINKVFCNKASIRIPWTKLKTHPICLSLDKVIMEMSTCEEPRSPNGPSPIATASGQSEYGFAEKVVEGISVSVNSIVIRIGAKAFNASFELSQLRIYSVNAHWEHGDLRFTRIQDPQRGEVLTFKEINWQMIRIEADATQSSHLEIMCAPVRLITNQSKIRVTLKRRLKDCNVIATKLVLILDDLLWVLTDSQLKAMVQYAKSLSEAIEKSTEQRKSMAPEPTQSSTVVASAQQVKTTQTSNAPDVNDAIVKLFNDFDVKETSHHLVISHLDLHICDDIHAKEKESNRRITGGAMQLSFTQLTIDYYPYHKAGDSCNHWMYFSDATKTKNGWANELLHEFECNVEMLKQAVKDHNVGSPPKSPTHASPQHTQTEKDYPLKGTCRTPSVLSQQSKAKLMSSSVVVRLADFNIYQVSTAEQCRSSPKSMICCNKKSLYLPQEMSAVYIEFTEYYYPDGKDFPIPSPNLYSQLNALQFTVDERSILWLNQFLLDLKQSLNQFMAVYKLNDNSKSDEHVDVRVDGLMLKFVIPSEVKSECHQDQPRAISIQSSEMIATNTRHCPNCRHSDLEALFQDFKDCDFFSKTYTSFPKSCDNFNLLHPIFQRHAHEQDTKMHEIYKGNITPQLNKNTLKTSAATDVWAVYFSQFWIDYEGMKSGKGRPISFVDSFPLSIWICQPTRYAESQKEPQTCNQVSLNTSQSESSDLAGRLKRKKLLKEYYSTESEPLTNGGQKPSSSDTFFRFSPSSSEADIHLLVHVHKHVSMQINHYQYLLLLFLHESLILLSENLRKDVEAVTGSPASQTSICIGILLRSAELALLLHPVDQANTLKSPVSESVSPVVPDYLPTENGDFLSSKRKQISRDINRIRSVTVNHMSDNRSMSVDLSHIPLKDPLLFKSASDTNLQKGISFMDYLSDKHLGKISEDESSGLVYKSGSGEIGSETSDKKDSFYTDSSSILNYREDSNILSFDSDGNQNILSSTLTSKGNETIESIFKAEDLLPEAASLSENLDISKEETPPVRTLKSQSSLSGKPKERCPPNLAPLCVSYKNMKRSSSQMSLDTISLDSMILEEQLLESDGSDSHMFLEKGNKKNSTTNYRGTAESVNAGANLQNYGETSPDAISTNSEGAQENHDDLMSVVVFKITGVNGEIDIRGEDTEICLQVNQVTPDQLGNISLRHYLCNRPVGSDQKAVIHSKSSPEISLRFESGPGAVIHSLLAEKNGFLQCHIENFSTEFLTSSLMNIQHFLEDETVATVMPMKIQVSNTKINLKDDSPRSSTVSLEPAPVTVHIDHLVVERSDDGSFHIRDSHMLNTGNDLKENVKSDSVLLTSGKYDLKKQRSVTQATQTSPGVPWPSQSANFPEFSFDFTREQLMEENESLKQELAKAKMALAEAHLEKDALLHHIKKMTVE
UniProt Q969X6: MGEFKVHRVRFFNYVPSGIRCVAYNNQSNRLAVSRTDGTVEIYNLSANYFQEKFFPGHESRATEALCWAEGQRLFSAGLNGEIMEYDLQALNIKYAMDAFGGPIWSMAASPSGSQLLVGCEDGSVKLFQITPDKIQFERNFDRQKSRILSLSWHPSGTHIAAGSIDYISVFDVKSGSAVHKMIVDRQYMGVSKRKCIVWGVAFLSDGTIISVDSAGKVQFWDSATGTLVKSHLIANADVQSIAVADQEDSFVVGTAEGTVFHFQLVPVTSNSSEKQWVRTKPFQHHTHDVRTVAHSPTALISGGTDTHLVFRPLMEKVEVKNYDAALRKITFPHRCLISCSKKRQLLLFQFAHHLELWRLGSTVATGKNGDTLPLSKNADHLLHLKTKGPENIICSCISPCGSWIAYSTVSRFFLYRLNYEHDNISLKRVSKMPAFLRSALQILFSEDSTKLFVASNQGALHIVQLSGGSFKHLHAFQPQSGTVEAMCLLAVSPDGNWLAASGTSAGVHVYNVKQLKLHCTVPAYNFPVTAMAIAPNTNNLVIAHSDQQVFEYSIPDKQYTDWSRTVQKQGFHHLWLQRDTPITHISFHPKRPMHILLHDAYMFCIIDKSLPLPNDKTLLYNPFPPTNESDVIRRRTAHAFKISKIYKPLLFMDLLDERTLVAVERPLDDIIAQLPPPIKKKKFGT
UniProt Q9BRT2: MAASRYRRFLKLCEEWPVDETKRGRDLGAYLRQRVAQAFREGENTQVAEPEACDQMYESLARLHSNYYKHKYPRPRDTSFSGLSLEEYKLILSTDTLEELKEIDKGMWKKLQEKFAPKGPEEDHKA

What was measured:
Experiment in all cases: log2 fold change, soluble protein after heating vs DMSO (PISA); higher = thermal stabilisation; K562 cells, 10 uM, 30 min; active = over 0.2 and 3.5 SD of the protein, either way, in both replicates (recomputed)
[1] = compound: Cc1ccc(NC(=O)c2ccc(CN3CC[C@H](N(C)C)C3)c(C(F)(F)F)c2)cc1Nc1nccc(-c2cncnc2)n1 [bafetinib]
Summary of the method: (§1)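 Soluble protein was defined as the supernatant after 21,000xg for 90 min. It came from K562 cells at 2×10^6 cells/mL given 10 μM compound for 30 min, heated in aliquots for 3 min across 48°C-58°C, pooled, and extracted in PBS with 0.5% NP-40 at 4°C, and was quantified by TMTpro 16plex LC-MS/MS with equalised channel sums. Thermal stability against control samples, from duplicates, is reported as log2 fold change.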

[2] = compound: Cc1cccc(CC(=O)N2CCc3c2ccc(-c2cn(C)c4ncnc(N)c24)c3F)n1
Summary of the method: as §1

[3] = compound: Cc1cn(-c2cc(NC(=O)c3ccc(C)c(Nc4nccc(-c5cccnc5)n4)c3)cc(C(F)(F)F)c2)cn1 [nilotinib]
Summary of the method: as §1

[4] = compound: Cc1nc(Nc2n[nH]c3c2CN(C(=O)N[C@H](CN(C)C)c2ccccc2)C3(C)C)c2sccc2n1
Summary of the method: as §1

[5] = compound: Cc1nc(Nc2ncc(C(=O)Nc3c(C)cccc3Cl)s2)cc(N2CCN(CCO)CC2)n1 [dasatinib]
Summary of the method: as §1

[6] = compound: Cc1ncc(-c2ccnc(Nc3ccc(S(C)(=O)=O)cc3)n2)n1C(C)C
Summary of the method: as §1

[7] = compound: Cn1cc(-c2ccc3c(c2)CCN3C(=O)Cc2cccc(C(F)(F)F)c2)c2c(N)ncnc21
Summary of the method: as §1

[8] = compound: Cn1cc(-c2ccc3nnc(C(F)(F)c4ccc5ncccc5c4)n3n2)cn1
Summary of the method: as §1

[9] = compound: Cn1cncc1[C@@](N)(c1ccc(Cl)cc1)c1ccc2c(c1)c(-c1cccc(Cl)c1)cc(=O)n2C [tipifarnib]
Summary of the method: as §1

[10] = compound: FC(F)(F)c1ccc(/C=C/c2nc(COc3ccc(CCCCn4ccnn4)cc3)co2)cc1 [mubritinib]
Summary of the method: as §1

[11] = compound: NC(=O)Nc1cc(-c2cccc(F)c2)sc1C(=O)N[C@H]1CCCNC1
Summary of the method: as §1

[12] = compound: NC(=O)c1cnc(N[C@@H]2CCCC[C@@H]2N)nc1Nc1cccc(-n2nccn2)c1
Summary of the method: as §1

[13] = compound: NC1(c2ccc(-c3nc4ccn5c(=O)[nH]nc5c4cc3-c3ccccc3)cc2)CCC1
Summary of the method: as §1

[14] = compound: NCC(=O)Nc1ccc(-n2nc(C(F)(F)F)cc2-c2ccc3c(ccc4ccccc43)c2)cc1
Summary of the method: as §1

[15] = compound: Nc1ccccc1NC(=O)c1ccc(CNC(=O)OCc2cccnc2)cc1 [entinostat]
Summary of the method: as §1

[16] = compound: O=C(CCCCCCC(=O)Nc1ccccc1)NO [vorinostat]
Summary of the method: as §1

[17] = compound: O=C(CCCCCCNC(=O)c1cnc(N(c2ccccc2)c2ccccc2Cl)nc1)NO [citarinostat]
Summary of the method: as §1

[18] = compound: O=C(O)c1ccc2c(c1)nc(Nc1cccc(Cl)c1)c1ccncc12 [silmitasertib]
Summary of the method: as §1

[19] = compound: O=C1NC(=O)C(c2cnc3ccccn23)=C1c1cn2c3c(cc(F)cc13)CN(C(=O)N1CCCCC1)CC2
Summary of the method: as §1

[20] = compound: c1cc(OCCN2CCCCC2)cc(-c2n[nH]c3ccc(-c4nnc[nH]4)cc23)c1
Summary of the method: as §1

Measured: log2 fold change

UQCRQ (UniProt O14949)
inactive: [1] -0.085 | [2] -0.021 | [3] 0.021 | [4] 0.004 | [5] 0.025 | [6] -0.008 | [7] 0.018 | [8] 0.018 | [9] -0.051 | [10] 0.04 | [11] -0.012 | [12] 0.044 | [13] 0.026 | [14] 0.04 | [15] -0.052 | [16] 0.003 | [17] 0.02 | [18] -0.022 | [19] -0.047 | [20] -0.007

VASP (UniProt P50552)
inactive: [1] 0.048 | [2] 0.055 | [3] -0.146 | [4] -0.119 | [5] -0.285 | [6] 0.056 | [7] 0.022 | [8] 0.015 | [9] -0.106 | [10] 0.101 | [11] -0.07 | [12] -0.15 | [13] -0.026 | [14] -0.06 | [15] 0.065 | [16] 0.039 | [17] 0.077 | [18] 0.119 | [19] 0.066 | [20] -0.068

UGDH (UniProt O60701)
inactive: [1] 0.018 | [2] 0.062 | [3] -0.045 | [5] -0.043 | [6] -0.24 | [7] 0.151 | [8] 0.09 | [9] -0.034 | [10] 0.202 | [11] -0.062 | [12] -0.124 | [13] -0.033 | [14] -0.095 | [15] 0.064 | [16] -0.027 | [17] 0.145 | [18] -0.102 | [20] 0
active: [4] -0.377 | [19] -0.31

UBR7 (UniProt Q8N806)
inactive: [1] -0.086 | [2] -0.017 | [3] -0.005 | [4] -0.044 | [5] -0.057 | [6] -0.009 | [7] 0.021 | [8] 0.101 | [9] -0.013 | [10] -0.005 | [11] -0.021 | [12] -0.067 | [13] 0.003 | [14] -0.018 | [15] -0.02 | [16] 0.022 | [17] 0.014 | [18] 0.039 | [19] -0.06 | [20] -0.025

UGP2 (UniProt Q16851)
inactive: [1] -0.012 | [2] -0.014 | [3] 0.037 | [4] -0.015 | [5] 0.023 | [6] -0.008 | [7] 0.025 | [8] 0.043 | [9] -0.021 | [10] 0.029 | [11] -0.016 | [12] -0.013 | [13] -0.017 | [14] -0.001 | [15] -0.015 | [16] 0.048 | [17] 0.024 | [18] -0.032 | [19] -0.058 | [20] -0.016

UHRF1BP1 (UniProt Q6BDS2)
inactive: [1] 0.042 | [2] 0.015 | [3] 0.138 | [4] 0.003 | [5] 0.044 | [6] -0.023 | [7] 0.045 | [8] 0.021 | [9] -0.005 | [10] 0.028 | [11] -0.019 | [12] 0.074 | [13] 0.019 | [14] 0.029 | [15] -0.058 | [16] 0.004 | [17] -0.012 | [18] -0.043 | [19] -0.032 | [20] 0.007

USP9X (UniProt Q93008)
inactive: [1] -0.016 | [2] 0.071 | [3] -0.099 | [4] -0.056 | [5] -0.122 | [6] -0.004 | [7] -0.052 | [8] -0.021 | [9] -0.126 | [10] 0.052 | [11] 0 | [12] -0.062 | [13] -0.174 | [14] -0.041 | [15] 0.037 | [16] 0.06 | [17] 0.032 | [18] 0.017 | [19] -0.015 | [20] -0.056

UQCRB (UniProt P14927)
inactive: [1] -0.061 | [2] 0.012 | [3] 0.019 | [4] 0.032 | [5] 0.026 | [6] -0.036 | [7] 0.037 | [8] 0.026 | [9] 0 | [10] 0.033 | [11] -0.016 | [12] -0.036 | [13] 0.015 | [14] 0.026 | [15] -0.032 | [16] -0.046 | [17] 0.042 | [18] -0.02 | [19] -0.006 | [20] -0.032

UBL5 (UniProt Q9BZL1)
inactive: [1] -0.013 | [2] 0.015 | [3] 0.052 | [4] -0.025 | [5] -0.067 | [6] 0.021 | [7] -0.081 | [8] -0.13 | [9] 0.093 | [10] 0.045 | [11] -0.035 | [12] -0.018 | [13] -0.047 | [14] -0.054 | [15] 0.039 | [16] 0.033 | [17] 0.017 | [18] 0.061 | [19] -0.05 | [20] -0.044

UBQLN1 (UniProt Q9UMX0)
inactive: [1] -0.003 | [2] -0.013 | [3] -0.014 | [4] 0.019 | [5] 0.003 | [6] -0.009 | [7] 0.078 | [8] 0.007 | [9] 0.009 | [10] 0.027 | [11] 0.026 | [12] 0.044 | [13] 0.002 | [14] -0.023 | [15] 0.135 | [16] 0.008 | [17] -0.032 | [18] -0.006 | [19] 0.048 | [20] -0.03

UHRF1BP1L (UniProt A0JNW5)
inactive: [1] 0.055 | [2] -0.002 | [3] 0.105 | [4] 0.005 | [5] -0.003 | [6] -0.029 | [7] 0.036 | [8] 0.038 | [9] -0.065 | [10] 0.007 | [11] -0.004 | [12] -0.017 | [13] -0.028 | [14] 0.055 | [15] -0.024 | [16] -0.035 | [17] -0.032 | [18] 0.015 | [19] -0.052 | [20] -0.013

VARS2, A0A0G2JL52
inactive: [1] -0.051 | [2] 0 | [3] -0.043 | [4] 0.012 | [5] 0.009 | [6] 0.003 | [7] 0.037 | [8] -0.021 | [9] -0.01 | [10] -0.049 | [11] 0.013 | [12] -0.01 | [13] -0.087 | [14] -0.062 | [15] 0.028 | [16] 0.106 | [17] 0.006 | [18] -0.005 | [19] -0.048 | [20] -0.017

2 successive records out of the list so far:
UGP2 (UniProt Q16851)
inactive: [1] -0.012 | [2] -0.014 | [3] 0.037 | [4] -0.015 | [5] 0.023 | [6] -0.008 | [7] 0.025 | [8] 0.043 | [9] -0.021 | [10] 0.029 | [11] -0.016 | [12] -0.013 | [13] -0.017 | [14] -0.001 | [15] -0.015 | [16] 0.048 | [17] 0.024 | [18] -0.032 | [19] -0.058 | [20] -0.016

UHRF1BP1 (UniProt Q6BDS2)
inactive: [1] 0.042 | [2] 0.015 | [3] 0.138 | [4] 0.003 | [5] 0.044 | [6] -0.023 | [7] 0.045 | [8] 0.021 | [9] -0.005 | [10] 0.028 | [11] -0.019 | [12] 0.074 | [13] 0.019 | [14] 0.029 | [15] -0.058 | [16] 0.004 | [17] -0.012 | [18] -0.043 | [19] -0.032 | [20] 0.007

Later entries:

UCKL1 (UniProt Q9NWZ5)
inactive: [1] 0.083 | [2] 0.067 | [3] 0.127 | [4] -0.006 | [5] -0.015 | [6] -0.027 | [7] 0.013 | [8] 0.036 | [9] -0.011 | [10] -0.021 | [11] -0.033 | [12] -0.035 | [13] -0.05 | [14] -0.037 | [15] 0.026 | [16] 0.013 | [17] 0.003 | [18] 0.094 | [19] -0.025 | [20] -0.14

UVRAG (UniProt Q9P2Y5)
inactive: [1] 0.068 | [2] -0.047 | [3] -0.084 | [4] 0.043 | [5] -0.178 | [6] 0.009 | [7] 0.026 | [8] 0.053 | [9] -0.057 | [10] 0.023 | [11] -0.015 | [12] 0.051 | [13] -0.017 | [14] 0.208 | [15] -0.02 | [16] -0.004 | [17] -0.008 | [18] 0.042 | [19] 0.021 | [20] -0.017

UTP4 (UniProt Q969X6)
inactive: [1] -0.04 | [2] -0.013 | [3] 0.021 | [4] 0.035 | [5] 0.039 | [6] 0.143 | [7] -0.042 | [8] -0.014 | [9] 0.058 | [10] -0.025 | [11] 0.049 | [12] 0.033 | [13] 0.075 | [14] 0.05 | [15] -0.037 | [16] -0.051 | [17] -0.002 | [18] 0.064 | [19] 0.06 | [20] -0.03

UQCC2 (UniProt Q9BRT2)
inactive: [1] -0.123 | [2] -0.098 | [3] -0.03 | [4] 0.043 | [5] -0.158 | [6] -0.004 | [7] -0.034 | [8] 0.041 | [9] 0.017 | [10] 0 | [11] -0.014 | [12] -0.003 | [13] -0.048 | [14] 0.172 | [15] -0.035 | [16] 0.019 | [17] 0.049 | [18] -0.02 | [19] -0.072 | [20] -0.024
